{"source": "PubChem BioAssay AID445", "about": "(National Center for Advancing Translational Sciences (NCATS), 2006)", "note": "The list shows a part of the results. The main result of the screen is listed elsewhere. These columns were measured beside it and carry no call. Compounds called inactive in the main read-out are mostly missing here. The note in brackets gives the kind of curve behind each potency; many fits are weak.", "data": [{"assay": "IkB Signaling", "details": "ABC-DLBCL IkBa-CBG/CBR dual luciferase ratio (green luciferase fused to IkBa over red control in OCI-Ly3 lymphoma cells), 4 h; measured here: control luc red channel unless noted", "method_in_brief": "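Curves were fitted separately to fusion (green), unfused (red) and ratio luminescence, then classed by r2, magnitude and activity. Cells: OCI-Ly3, 4 h compound plus doxycycline at 37C; 10 uM MG-132 defined full response.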", "values": [{"smiles": "O=C1Nc2ccc(S(=O)(=O)Nc3ccccc3O)c3cccc1c23", "AC50": "25.1 µM [falling, single point]"}, {"smiles": "COc1ccc(NC(=O)CSc2nnc(-c3cccs3)o2)cc1", "AC50": "2.51 µM [rising, partial curve]"}, {"smiles": "CCOc1ccccc1Nc1cc(-c2ccccc2)nc(C)n1", "AC50": "31.6 µM [falling, single point]"}, {"smiles": "CC(=O)C(C(C)=O)c1c(Cl)c(O)c(O)c2c(C(=O)c3ccccc3)coc12", "AC50": "10 µM [falling, partial curve]"}, {"smiles": "COc1ccc(-n2ncc3c(NCCC4=CCCCC4)ncnc32)cc1", "AC50": "5.01 µM [falling, full curve]"}, {"smiles": "NC(=O)c1c(NC(=O)COC(=O)CSc2nnc(-c3ccc(Cl)cc3)o2)sc2c1CCC2", "AC50": "31.6 µM [falling, partial curve]"}, {"smiles": "COC(=O)CCc1c(C)c(C(=O)c2ccco2)c2ccccn12", "AC50": "31.6 µM [rising, single point] [measured here: IkB-luc green channel]"}, {"smiles": "Cc1ccc(N2CC(C(=O)Nc3ccc(Br)cc3)CC2=O)cc1", "note": "(configuration not stated)", "AC50": "7.94 µM [falling, partial curve, poor fit]"}, {"smiles": "CCC1=Nc2cc(C(=O)NC3CCCC3)ccc2Sc2ccc(Br)cc21", "AC50": "6.31 µM [rising, single point] [measured here: IkB-luc green channel]"}, {"smiles": "COc1ccc(C(=O)n2nc(-c3ccco3)nc2NCc2cccs2)cc1", "AC50": "25.1 µM [falling, single point]"}, {"smiles": "CN(C)c1ccc(N/C=C/C(=O)c2ccccc2)cc1", "AC50": "0.316 µM [falling, full curve]"}, {"smiles": "COC(=O)c1ccccc1NC(=O)Cn1nnc2sc(-c3ccccc3)cc2c1=O", "AC50": "15.8 µM [falling, single point]"}, {"smiles": "COc1ccc(-c2nc(-c3ccccc3)c(-c3ccc(O)cc3)[nH]2)cc1", "AC50": "15.8 µM [falling, partial curve]"}, {"smiles": "CC1=CC(C)(C)Nc2ccc(OC(=O)c3ccco3)cc21", "AC50": "6.31 µM [falling, full curve]"}, {"smiles": "COc1ccccc1C(=O)Nc1nc(-c2ccccc2)ns1", "AC50": "25.1 µM [falling, partial curve]"}, {"smiles": "COc1cccc(C(=O)Nc2ccc(NC(C)=O)cn2)c1", "AC50": "12.6 µM [falling, partial curve]"}, {"smiles": "COc1ccc(Cn2c(C(=O)O)c(CNC3CCCCCC3)c3ccc(OC)cc32)cc1", "AC50": "39.8 µM [falling, single point]"}, {"smiles": "O=C(/C=C/c1ccc(F)cc1)Nc1nc2n(n1)C(c1ccc(Cl)cc1)C=C(c1ccccc1)N2", "note": "(configuration not stated)", "AC50": "25.1 µM [falling, single point]"}, {"smiles": "Cc1ccc2sc(N3CCN(C(=O)CCS(=O)(=O)c4ccc(F)cc4)CC3)nc2c1C", "AC50": "39.8 µM [falling, single point]"}, {"smiles": "CCOC(=O)c1ccc(NC(=O)c2ncn(-c3ccccc3)n2)cc1", "AC50": "0.501 µM [falling, full curve]"}, {"smiles": "Cc1ccc(-c2nc(-c3cc4cccc(OCc5cccc(C)c5)c4oc3=O)no2)cc1", "AC50": "3.16 µM [falling, partial curve]"}, {"smiles": "CCc1c(C)nc2nncn2c1Nc1ccc(C(C)C)cc1", "AC50": "31.6 µM [falling, partial curve, poor fit]"}, {"smiles": "Cc1cccc(N2CC(C)Cn3c2nc2c3c(=O)n(CC(=O)OCc3ccccc3)c(=O)n2C)c1", "note": "(configuration not stated)", "AC50": "0.794 µM [falling, full curve]"}, {"smiles": "O=C(c1ccc2c(c1)N(Cc1ccccc1F)C(=O)c1ccccc1S2=O)N1CCN(c2ccccc2)CC1", "note": "(configuration not stated)", "AC50": "12.6 µM [falling, partial curve]"}, {"smiles": "CCCCN1CCCc2cc(CN(CCCN3CCOCC3)C(=O)Nc3ccc(OCC)cc3)ccc21", "AC50": "6.31 µM [falling, single point]"}, {"smiles": "CCN(CC)S(=O)(=O)c1ccc2c(c1)N(CC(=O)N1CCN(c3ccccc3F)CC1)C(=O)CO2", "AC50": "31.6 µM [falling, single point]"}, {"smiles": "CC1CN(c2nc3c(c(=O)n(Cc4ccc(Cl)c(Cl)c4)c(=O)n3C)n2C)CC(C)O1", "note": "(configuration not stated)", "AC50": "15.8 µM [falling, partial curve]"}, {"smiles": "CCOC(=O)c1ccc(Nc2ncnc3c2cnn3-c2cccc(Cl)c2)cc1", "AC50": "0.631 µM [falling, full curve, poor fit]"}, {"smiles": "CCN(C(=O)c1cc2c(s1)-c1ccccc1OC2)c1cc(Cl)ccc1OC", "AC50": "20 µM [falling, partial curve]"}, {"smiles": "CCCCC(c1nnnn1CC1CCCO1)N1CCN(c2nc3ccccc3s2)CC1", "note": "(configuration not stated)", "AC50": "39.8 µM [falling, single point]"}, {"smiles": "CCOC(=O)Cn1nnnc1CN(Cc1ccccc1)Cc1cc2cc(CC)ccc2[nH]c1=O", "AC50": "20 µM [falling, partial curve, poor fit]"}, {"smiles": "COC(=O)c1cccc(Nc2c(-c3ccc(O)c(OC)c3)nc3nc[nH]n23)c1", "AC50": "7.94 µM [falling, single point]"}, {"smiles": "COc1cccc(N2C(=O)CC(c3c[nH]c4ccccc34)C2=O)c1", "note": "(configuration not stated)", "AC50": "0.0794 µM [falling, full curve]"}, {"smiles": "Cc1ccc(-c2nc3cc(C(C)C)ccc3o2)cc1NC(=O)c1cccs1", "AC50": "0.398 µM [falling, full curve]"}, {"smiles": "Cc1cccc(NC(=O)CSc2nc3ccc(NC(=O)c4ccco4)cc3s2)c1", "AC50": "10 µM [falling, partial curve]"}, {"smiles": "Cc1ccc2nc(-c3ccc(O)cc3)c(Nc3ccc4c(c3)OCO4)n2c1", "AC50": "12.6 µM [falling, partial curve]"}, {"smiles": "COc1cc(-c2nnc(SCC(=O)Nc3ccc(F)c(Cl)c3)o2)cc(OC)c1OC", "AC50": "25.1 µM [falling, single point]"}, {"smiles": "C=CC(=O)OCC(CO)(COC(=O)C=C)COC(=O)C=C", "AC50": "5.01 µM [falling, full curve]"}, {"smiles": "COc1cccc(C(=O)Nc2ccccc2OCc2cc(=O)n3cc(C)ccc3n2)c1", "AC50": "39.8 µM [falling, single point]"}, {"smiles": "Cc1oc(-c2ccc(Cl)cc2)nc1CS(=O)CC(=O)NCc1ccc(Cl)cc1", "note": "(configuration not stated)", "AC50": "25.1 µM [falling, single point]"}, {"smiles": "O=C(c1ccco1)[C@@H]1[C@@H]2C(=O)N(c3ccc(Br)cc3)C(=O)[C@@H]2C2c3ccccc3C=CN21", "note": "(some centres not stated)", "AC50": "1.26 µM [falling, full curve]"}, {"smiles": "CCCN1C=CC(=C2C(=O)c3ccccc3C2=O)C=C1", "AC50": "3.98 µM [falling, full curve]"}, {"smiles": "COc1ccccc1N1CCN(C(CNC(=O)C(=O)NCCCN(C)C)c2cccnc2)CC1", "note": "(configuration not stated)", "AC50": "12.6 µM [falling, partial curve]"}, {"smiles": "CCOC(=O)C1=C(CS(=O)(=O)c2c(C)cc(C)cc2C)NC(=O)NC1c1cccc(OC)c1", "note": "(configuration not stated)", "AC50": "31.6 µM [falling, single point]"}, {"smiles": "COc1ccc(N(CC(=O)NCCc2cccc(C)c2)S(=O)(=O)c2c(C)nn(C)c2C)cc1", "AC50": "12.6 µM [falling, partial curve]"}, {"smiles": "CC(C)(C)OC(=O)NCCc1nnc(S(=O)(=O)Cc2ccc(Cl)cc2Cl)o1", "AC50": "2 µM [falling, full curve]"}, {"smiles": "CCOc1ccc(OCC)c(NC(=O)C2CCN(S(=O)(=O)c3ccc(Br)s3)CC2)c1", "AC50": "25.1 µM [falling, partial curve]"}, {"smiles": "Cc1ccc(N2CCN(C(=O)Cc3c(C(=O)O)c(C)cn3C)CC2)c(C)c1", "AC50": "31.6 µM [falling, partial curve]"}, {"smiles": "Cc1cccc(NC(=O)N2CCc3c(sc4c3CCCC4)C2c2ccc(F)cc2)c1", "note": "(configuration not stated)", "AC50": "2 µM [falling, full curve, poor fit]"}, {"smiles": "Cc1cc(C(=O)N2CCN(C(c3ccccc3)c3ccccc3)CC2)no1", "AC50": "12.6 µM [falling, partial curve]"}, {"smiles": "CCc1ccc(NC(=O)C2CCN(C(=O)N3CC(CC)Oc4ccccc43)CC2)cc1", "note": "(configuration not stated)", "AC50": "39.8 µM [falling, single point]"}, {"smiles": "COc1cccc(NC(=O)CCNS(=O)(=O)c2ccc(Br)s2)c1", "AC50": "20 µM [falling, partial curve]"}, {"smiles": "CCc1nn(CC(=O)N2CCCCC2)c(=O)c2cc3sccc3n12", "AC50": "2.51 µM [rising, full curve, poor fit]"}, {"smiles": "COc1ccc(CNC(=O)Cc2csc3ccccc23)cc1OC", "AC50": "7.94 µM [falling, partial curve]"}, {"smiles": "CC(NC(=O)c1cc(Sc2ccc(F)cc2F)nc2ccccc12)c1ccccc1", "note": "(configuration not stated)", "AC50": "12.6 µM [falling, partial curve]"}, {"smiles": "CCc1ccc2oc(-c3cc(N)ccc3O)nc2c1", "AC50": "20 µM [falling, single point]"}, {"smiles": "Cc1nc2ncnn2c(Nc2ccc3c(c2)OCO3)c1Cc1ccccc1", "AC50": "6.31 nM [rising, full curve, poor fit] [measured here: IkB-luc green channel]"}, {"smiles": "Cc1cn2c(=O)c(S(=O)(=O)NCCc3ccccc3)c(C)nc2s1", "AC50": "39.8 µM [falling, single point]"}, {"smiles": "O=C(c1ccco1)N1CCN(C(=O)c2cc3sccc3n2Cc2ccccc2)CC1", "AC50": "20 µM [falling, partial curve]"}, {"smiles": "O=C(O)CCC(=O)N1CCc2cc(S(=O)(=O)NC3CCCc4ccccc43)ccc21", "note": "(configuration not stated)", "AC50": "10 µM [falling, partial curve]"}, {"smiles": "Cc1cc(C)c(OCC(=O)Nc2cccc(NC(=O)c3ccco3)c2)c(Br)c1", "AC50": "2.51 µM [falling, full curve]"}, {"smiles": "O=C(Cc1cccc([N+](=O)[O-])c1)NCc1nc2cccnc2n1Cc1ccc(F)cc1", "AC50": "31.6 µM [rising, single point] [measured here: IkB-luc green channel]"}]}]}
